According to the supplement of paper PMC4604168 (melanoma cell lines):
The list shows a part of the results. Repeats are few or missing, and single values can be far off.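 The apoptosis fraction was the count of cleaved-PARP antibody-stained nuclei relative to all DNA-stained nuclei, imaged in 1,536-well plates. Screening doses were set so most cells survived, and baseline and induced cleaved-PARP levels vary greatly across cell lines.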

Legend:
Experiment in all cases: cleaved PARP positive nuclei fraction relative to DMSO control; melanoma cells; higher = more apoptosis
Conditions in all cases: library dose: low library concentration; 72 h
[1] = system: MZ2-MEL
[2] = system: MeWo
[3] = system: RPMI7951
[4] = system: RVH-421
[5] = system: SkMel28
[6] = system: SkMel2
[7] = system: SkMel30
[8] = system: UACC62
[9] = system: WM115
[10] = system: WM1716
[11] = system: WM1745
[12] = system: WM3526
[13] = system: WM3619
[14] = system: WM451Lu

## O=c1[nH]nc(Sc2ncc([N+](=O)[O-])s2)n1-c1ccc2c(c1)OCCO2 + C[C@]1(O)C[C@@H](c2nc(-c3ccc4ccc(-c5ccccc5)nc4c3)c3c(N)nccn32)C1 [OSI906] (first compound 0.2 µM, partner dose 0.4 µM)
[1]
  cleaved PARP positive nuclei fraction: 96.1%
[2]
  cleaved PARP positive nuclei fraction: 53%
[3]
  cleaved PARP positive nuclei fraction: 135%
[4]
  cleaved PARP positive nuclei fraction: 32.7%
[5]
  cleaved PARP positive nuclei fraction: 89.5%
[6]
  cleaved PARP positive nuclei fraction: 221%
[7]
  cleaved PARP positive nuclei fraction: 117%
[8]
  cleaved PARP positive nuclei fraction: 83.9%
[9]
  cleaved PARP positive nuclei fraction: 191%
[10]
  cleaved PARP positive nuclei fraction: 36.9%
[11]
  cleaved PARP positive nuclei fraction: 119%
[12]
  cleaved PARP positive nuclei fraction: 61%
[13]
  cleaved PARP positive nuclei fraction: 108%
[14]
  cleaved PARP positive nuclei fraction: 22.3%

## N#CC[C@H](C1CCCC1)n1cc(-c2ncnc3[nH]ccc23)cn1 [ruxolitinib] + C[C@@H](N)c1ccc(C(=O)Nc2ccnc3[nH]ccc23)cc1 [RKI983] (first compound 1 µM, partner dose 0.4 µM)
[1]
  cleaved PARP positive nuclei fraction: 164%
[2]
  cleaved PARP positive nuclei fraction: 221%
[3]
  cleaved PARP positive nuclei fraction: 110%
[4]
  cleaved PARP positive nuclei fraction: 156%
[5]
  cleaved PARP positive nuclei fraction: 210%
[6]
  cleaved PARP positive nuclei fraction: 70.3%
[7]
  cleaved PARP positive nuclei fraction: 74.3%
[8]
  cleaved PARP positive nuclei fraction: 25.7%
[9]
  cleaved PARP positive nuclei fraction: 33.4%
[10]
  cleaved PARP positive nuclei fraction: 163%
[11]
  cleaved PARP positive nuclei fraction: 108%
[12]
  cleaved PARP positive nuclei fraction: 31.5%
[13]
  cleaved PARP positive nuclei fraction: 77.2%
[14]
  cleaved PARP positive nuclei fraction: 102%

## Cc1ccc(Nc2nccc(N(C)c3ccc4c(C)n(C)nc4c3)n2)cc1S(N)(=O)=O [Pazopanib] + CC(C)C[C@H](NC(=O)[C@H](Cc1ccccc1)NC(=O)c1cnccn1)B(O)O [Bortezomib] (first compound 0.4 µM, partner dose 0.001 µM)
[1]
  cleaved PARP positive nuclei fraction: 94.1%
[2]
  cleaved PARP positive nuclei fraction: 138%
[3]
  cleaved PARP positive nuclei fraction: 60%
[4]
  cleaved PARP positive nuclei fraction: 81.9%
[5]
  cleaved PARP positive nuclei fraction: 51.7%
[6]
  cleaved PARP positive nuclei fraction: 76.7%
[7]
  cleaved PARP positive nuclei fraction: 150%
[8]
  cleaved PARP positive nuclei fraction: 305%
[9]
  cleaved PARP positive nuclei fraction: 56.1%
[10]
  cleaved PARP positive nuclei fraction: 40.6%
[11]
  cleaved PARP positive nuclei fraction: 104%
[12]
  cleaved PARP positive nuclei fraction: 53.2%
[13]
  cleaved PARP positive nuclei fraction: 104%
[14]
  cleaved PARP positive nuclei fraction: 498%

## O=C(Nc1cc(C(F)(F)F)cc(C(F)(F)F)c1)c1cc(Cl)ccc1O + Cc1cc(Nc2cc(N3CCN(C)CC3)nc(/C=C/c3ccccc3)n2)n[nH]1 [ENMD2076] (first compound 0.016 µM, partner dose 0.04 µM)
[1]
  cleaved PARP positive nuclei fraction: 73.7%
[2]
  cleaved PARP positive nuclei fraction: 163%
[3]
  cleaved PARP positive nuclei fraction: 28.4%
[4]
  cleaved PARP positive nuclei fraction: 57.1%
[5]
  cleaved PARP positive nuclei fraction: 91.9%
[6]
  cleaved PARP positive nuclei fraction: 121%
[7]
  cleaved PARP positive nuclei fraction: 73.3%
[8]
  cleaved PARP positive nuclei fraction: 50.9%
[9]
  cleaved PARP positive nuclei fraction: 154%
[10]
  cleaved PARP positive nuclei fraction: 105%
[11]
  cleaved PARP positive nuclei fraction: 93.7%
[12]
  cleaved PARP positive nuclei fraction: 37.6%
[13]
  cleaved PARP positive nuclei fraction: 98.1%
[14]
  cleaved PARP positive nuclei fraction: 157%

## CC[C@]1(O)C[C@H]2CN(CCc3c([nH]c4ccccc34)[C@@](C(=O)OC)(c3cc4c(cc3OC)N(C=O)[C@H]3[C@@](O)(C(=O)OC)[C@H](OC(C)=O)[C@]5(CC)C=CCN6CC[C@]43[C@@H]65)C2)C1 [vincristine] + CC1(C)CCC(c2ccc(Cl)cc2)=C(CN2CCN(c3ccc(C(=O)NS(=O)(=O)c4ccc(N[C@H](CCN5CCOCC5)CSc5ccccc5)c(S(=O)(=O)C(F)(F)F)c4)cc3)CC2)C1 [ABT263] (first compound 0.0001 µM, partner dose 0.4 µM)
[1]
  cleaved PARP positive nuclei fraction: 192%
[2]
  cleaved PARP positive nuclei fraction: 457%
[3]
  cleaved PARP positive nuclei fraction: 210%
[4]
  cleaved PARP positive nuclei fraction: 202%
[5]
  cleaved PARP positive nuclei fraction: 82%
[6]
  cleaved PARP positive nuclei fraction: 140%
[7]
  cleaved PARP positive nuclei fraction: 73.1%
[8]
  cleaved PARP positive nuclei fraction: 64.2%
[9]
  cleaved PARP positive nuclei fraction: 192%
[10]
  cleaved PARP positive nuclei fraction: 156%
[11]
  cleaved PARP positive nuclei fraction: 261%
[12]
  cleaved PARP positive nuclei fraction: 35.9%
[13]
  cleaved PARP positive nuclei fraction: 219%
[14]
  cleaved PARP positive nuclei fraction: 270%

## O=c1[nH]nc(Sc2ncc([N+](=O)[O-])s2)n1-c1ccc2c(c1)OCCO2 + CCCS(=O)(=O)Nc1ccc(F)c(C(=O)c2c[nH]c3ncc(Cl)cc23)c1F [PLX4720] (first compound 0.2 µM, partner dose 0.08 µM)
[1]
  cleaved PARP positive nuclei fraction: 102%
[2]
  cleaved PARP positive nuclei fraction: 42.9%
[3]
  cleaved PARP positive nuclei fraction: 32.1%
[4]
  cleaved PARP positive nuclei fraction: 60.7%
[5]
  cleaved PARP positive nuclei fraction: 96.2%
[6]
  cleaved PARP positive nuclei fraction: 139%
[7]
  cleaved PARP positive nuclei fraction: 27.5%
[8]
  cleaved PARP positive nuclei fraction: 99.4%
[9]
  cleaved PARP positive nuclei fraction: 102%
[10]
  cleaved PARP positive nuclei fraction: 52.3%
[11]
  cleaved PARP positive nuclei fraction: 168%
[12]
  cleaved PARP positive nuclei fraction: 654%
[13]
  cleaved PARP positive nuclei fraction: 93%
[14]
  cleaved PARP positive nuclei fraction: 85%

## CC[C@]1(O)C[C@H]2CN(CCc3c([nH]c4ccccc34)[C@@](C(=O)OC)(c3cc4c(cc3OC)N(C=O)[C@H]3[C@@](O)(C(=O)OC)[C@H](OC(C)=O)[C@]5(CC)C=CCN6CC[C@]43[C@@H]65)C2)C1 [vincristine] + O=c1[nH]nc(Sc2ncc([N+](=O)[O-])s2)n1-c1ccc2c(c1)OCCO2 [BI78D3] (first compound 0.0001 µM, partner dose 0.2 µM)
[1]
  cleaved PARP positive nuclei fraction: 70.7%
[2]
  cleaved PARP positive nuclei fraction: 126%
[3]
  cleaved PARP positive nuclei fraction: 254%
[4]
  cleaved PARP positive nuclei fraction: 64.5%
[5]
  cleaved PARP positive nuclei fraction: 43.1%
[6]
  cleaved PARP positive nuclei fraction: 84.5%
[7]
  cleaved PARP positive nuclei fraction: 355%
[8]
  cleaved PARP positive nuclei fraction: 211%
[9]
  cleaved PARP positive nuclei fraction: 953%
[10]
  cleaved PARP positive nuclei fraction: 583%
[11]
  cleaved PARP positive nuclei fraction: 288%
[12]
  cleaved PARP positive nuclei fraction: 306%
[13]
  cleaved PARP positive nuclei fraction: 156%
[14]
  cleaved PARP positive nuclei fraction: 41.4%

## O=C(Nc1cc(C(F)(F)F)cc(C(F)(F)F)c1)c1cc(Cl)ccc1O + C[C@@H](N)c1ccc(C(=O)Nc2ccnc3[nH]ccc23)cc1 [RKI983] (first compound 0.016 µM, partner dose 0.4 µM)
[1]
  cleaved PARP positive nuclei fraction: 160%
[2]
  cleaved PARP positive nuclei fraction: 2090%
[3]
  cleaved PARP positive nuclei fraction: 222%
[4]
  cleaved PARP positive nuclei fraction: 353%
[5]
  cleaved PARP positive nuclei fraction: 382%
[6]
  cleaved PARP positive nuclei fraction: 99.8%
[7]
  cleaved PARP positive nuclei fraction: 91.5%
[8]
  cleaved PARP positive nuclei fraction: 302%
[9]
  cleaved PARP positive nuclei fraction: 51%
[10]
  cleaved PARP positive nuclei fraction: 2590%
[11]
  cleaved PARP positive nuclei fraction: 20.7%
[12]
  cleaved PARP positive nuclei fraction: 71%
[13]
  cleaved PARP positive nuclei fraction: 86.7%
[14]
  cleaved PARP positive nuclei fraction: 159%

## Cc1cc(Nc2cc(N3CCN(C)CC3)nc(Sc3ccc(NC(=O)C4CC4)cc3)n2)n[nH]1 [Tozasertib] + C=CCNC1=C2C[C@@H](C)C[C@H](OC)[C@H](O)[C@@H](C)/C=C(\C)[C@H](OC(N)=O)[C@@H](OC)/C=C\C=C(/C)C(=O)NC(=CC1=O)C2=O [Tanespimycin] (first compound 0.006 µM, partner dose 0.002 µM)
[1]
  cleaved PARP positive nuclei fraction: 150%
[2]
  cleaved PARP positive nuclei fraction: 98.6%
[3]
  cleaved PARP positive nuclei fraction: 86.5%
[4]
  cleaved PARP positive nuclei fraction: 272%
[5]
  cleaved PARP positive nuclei fraction: 88.3%
[6]
  cleaved PARP positive nuclei fraction: 158%
[7]
  cleaved PARP positive nuclei fraction: 89.9%
[8]
  cleaved PARP positive nuclei fraction: 87.8%
[9]
  cleaved PARP positive nuclei fraction: 51.8%
[10]
  cleaved PARP positive nuclei fraction: 53.3%
[11]
  cleaved PARP positive nuclei fraction: 101%
[12]
  cleaved PARP positive nuclei fraction: 31.5%
[13]
  cleaved PARP positive nuclei fraction: 124%
[14]
  cleaved PARP positive nuclei fraction: 65.6%
